The text below walks through data of PMC11335232.

The chains behind the UniProt entries cited, without tags or fusion partners.
UniProt Q15022: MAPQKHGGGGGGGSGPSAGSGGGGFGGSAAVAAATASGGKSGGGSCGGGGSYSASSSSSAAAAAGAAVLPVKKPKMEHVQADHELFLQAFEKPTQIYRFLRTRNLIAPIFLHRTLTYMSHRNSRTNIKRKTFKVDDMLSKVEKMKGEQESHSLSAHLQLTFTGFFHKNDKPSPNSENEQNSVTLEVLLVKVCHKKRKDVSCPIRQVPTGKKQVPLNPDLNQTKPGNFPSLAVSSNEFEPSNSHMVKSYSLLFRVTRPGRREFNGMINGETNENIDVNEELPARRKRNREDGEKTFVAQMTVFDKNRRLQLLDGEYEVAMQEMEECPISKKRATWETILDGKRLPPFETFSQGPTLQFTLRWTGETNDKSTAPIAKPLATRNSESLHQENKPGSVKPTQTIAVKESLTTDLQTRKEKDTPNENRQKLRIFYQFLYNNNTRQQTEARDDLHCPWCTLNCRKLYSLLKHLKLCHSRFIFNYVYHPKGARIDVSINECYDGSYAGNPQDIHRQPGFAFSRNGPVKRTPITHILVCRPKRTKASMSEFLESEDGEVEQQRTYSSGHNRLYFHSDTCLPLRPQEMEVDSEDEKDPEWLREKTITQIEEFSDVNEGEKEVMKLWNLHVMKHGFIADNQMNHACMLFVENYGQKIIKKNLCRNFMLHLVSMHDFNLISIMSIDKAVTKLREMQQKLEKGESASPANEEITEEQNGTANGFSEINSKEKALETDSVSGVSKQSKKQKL

The experiment deals with T1, CCCTC-binding factor (CTCF) (human (endogenous in NK92)) (UniProt P49711).
T1 sequence: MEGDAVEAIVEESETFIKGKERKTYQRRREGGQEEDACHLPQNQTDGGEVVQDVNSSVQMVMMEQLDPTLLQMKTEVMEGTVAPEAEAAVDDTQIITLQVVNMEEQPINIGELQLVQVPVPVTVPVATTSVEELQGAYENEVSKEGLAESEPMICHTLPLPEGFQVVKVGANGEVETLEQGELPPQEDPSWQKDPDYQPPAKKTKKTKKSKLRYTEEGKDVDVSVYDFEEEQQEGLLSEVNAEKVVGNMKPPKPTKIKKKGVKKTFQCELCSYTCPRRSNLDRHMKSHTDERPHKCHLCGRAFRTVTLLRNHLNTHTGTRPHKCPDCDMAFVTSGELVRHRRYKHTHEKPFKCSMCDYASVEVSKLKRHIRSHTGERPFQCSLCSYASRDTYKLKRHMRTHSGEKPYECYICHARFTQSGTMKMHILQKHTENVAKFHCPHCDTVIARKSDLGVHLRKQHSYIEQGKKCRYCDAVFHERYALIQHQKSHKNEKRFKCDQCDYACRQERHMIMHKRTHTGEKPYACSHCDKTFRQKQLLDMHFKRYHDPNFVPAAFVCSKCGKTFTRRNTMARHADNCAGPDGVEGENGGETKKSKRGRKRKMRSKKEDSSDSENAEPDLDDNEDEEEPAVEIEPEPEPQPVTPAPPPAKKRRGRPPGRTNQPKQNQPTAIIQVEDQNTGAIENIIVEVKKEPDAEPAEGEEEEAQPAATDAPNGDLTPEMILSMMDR
The experiment in a line: co-IP; endogenous proteins in NK92 lysate (20 mM Tris-HCl pH 7.5, 0.5% NP-40, 250 mM NaCl, 3 mM EDTA, 3 mM EGTA); overnight immunoprecipitation at 4 °C with antibodies or IgG, protein A/G magnetic beads, Western blot; untreated and rsMICA-treated cells.

Results are given in words; binding and its absence hold for the method and conditions named. In cells and extracts the contact can be indirect. Some results given as binding are weak or reduced against the parent protein; the word gives no strength.

Regarding “suppressor of zeste 12 protein homolog (SUZ12) (from UniProt Q15022 1-739)”, the binding entry is listed as “binds”.
